Values of other authors as cited in US20020041897A1, “Compositions for sustained release of antineoplastic taxanes, and methods of making and using the same” (priority 2000, published 2002).

Details: cited from earlier work

Row | Compound | solubility in water | water solubility
1 | CC(=O)O[C@@]12CO[C@@H]1C[C@H](O)[C@@]1(C)C(=O)[C@H](O)C3=C(C)[C@@H](OC(=O)[C@H](O)[C@@H](NC(=O)OC(C)(C)C)c4ccccc4)C[C@@](O)([C@@H](OC(=O)c4ccccc4)[C@H]21)C3(C)C [docetaxel] | poorly soluble in water | 
2 | CC(=O)O[C@H]1C(=O)[C@@]2(C)[C@H]([C@H](OC(=O)c3ccccc3)[C@]3(O)C[C@H](OC(=O)[C@H](O)[C@@H](NC(=O)c4ccccc4)c4ccccc4)C(C)=C1C3(C)C)[C@]1(OC(C)=O)CO[C@@H]1C[C@@H]2O [paclitaxel] |  | less than 10 μg/mL
